Results are given in words; binding and its absence hold for the method and conditions named. Binding calls can cover weak binding; strength is not graded here.
Molecular target: barley RAC1 (wild type), yeast two-hybrid fusion (barley (Hordeum vulgare)) (UniProt Q70WD7)
Experiment: two-hybrid; targeted yeast two-hybrid in strain AH109; bait- and prey-transformed cells dropped on SD -L-W (transformation) or SD -L,-W,-A-H (interaction-selective) medium; empty pGADT7 and pGBKT7 as auto-activity controls

barley ROP-Interactive Partner-a (RIPa), yeast two-hybrid fusion (from UniProt F2DI37)
binding: binds
